In patent publication US20220096512A1, “WATER-BASED ANTIFUNGAL COMPOSITIONS” (Sigma-Aldrich Co. LLC, priority 2019, published 2022):
Converted amounts (≈) assume the structure as drawn.

Tested on: Candida albicans
Assay: Diffusion disc MIC testing against Candida albicans
Assay type: cell-based
Details: diffusion paper disc, 10 μL applied, incubated overnight at 30° C., average of three experiments, read-out: Inhibition of Candida albicans (MIC, lower concentration at which inhibition could be visualized)
Procedure: Minimum inhibitory concentration (MIC) testing was determined for the inventive nystatin formulation described herein, along with comparative antifungal agents.
Nystatin (Solid) and amphotericin were dissolved in DMF in 1 mg/mL. Econazole nitrate was dissolved in PBS to achieve 1 mg/mL. Nystatin formulation diluted with PBS to achieve the same potency as Nystatin (Solid).
Antibiotic medium 19 was sterilized in autoclave, after sterilization when the temperature lowered to 45° C. and 1 mL from spore suspension was added. 8 mL from this mixture dispensed to each petri dish.
On each dish 6 sterile diffusion paper disc were placed, 10 μL from each antibiotic were applied in 10, 15, 20, 25, 30, 35 μg/mL concentrations. Where MIC concentrations were below 10, lower concentrations were used: 2, 5, 7.5 μg/mL
The petri dishes were incubated overnight at 30° C. The MIC were determined as the lower concentration that inhibition could be visualized.

`C[C@@H]1[C@H](O)[C@@H](C)/C=C/C=C/C=C/C=C/C=C/C=C/C=C/[C@H](O[C@@H]2O[C@H](C)[C@@H](O)[C@H](N)[C@@H]2O)C[C@@H]2O[C@](O)(C[C@@H](O)C[C@@H](O)[C@H](O)CC[C@@H](O)C[C@@H](O)CC(=O)O[C@H]1C)C[C@H](O)[C@H]2C(=O)O` [Amphotericin, Amphotericin B] was tested, and the MIC was 16 µg/mL (≈ 17.3 µM).
